Laboratory results taken from patent publication US20030203864A1, “Treatment of cancer” (priority 2002, published 2003).
For at least one compound, name, drawing or mass did not settle the structure.

System: bovine aortic endothelial cells
Assay: 3H-thymidine incorporation into DNA, aortic endothelial cells
Assay type: cell-based
Details: inhibitor added 2 h before insulin 500 nM; PD98059 10 and 30 μM, wortmannin 0.3 and 1 μM, SB202190 100 and 500 nM
Description: ^3H-Thymidine incorporation into DNA. Growth-arrested endothelial cells at 90% confluence in 96 well plates were incubated twice with the oligonucleotides prior to the addition of insulin. […] After 18 h of exposure to insulin, the cells were pulsed with 200,000 cpm/well of methyl-3H thymidine (NEN-DuPont) for 6 h.

## COC[C@H]1OC(=O)c2coc3c2[C@@]1(C)C1=C(C3=O)[C@@H]2CCC(=O)[C@@]2(C)C[C@H]1OC(C)=O [wortmannin, reference compound]
  insulin-inducible DNA synthesis: inhibited DNA synthesis in a dose-dependent manner
